PubChem BioAssay AID1224828 – NIAID, 2016
This is an unselected part of about 17,000 reagents tested. Over the whole deposit, 762 (4.5%) were called active. 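Active calls include both raised and lowered p65 entry, mostly lowered; wells with fewer than 50 cells lack a z-score.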 The raw values are shown without normalisation. Unmarked entries are inactive.

- Aim: 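Knock-downs that increase or decrease LPS-induced p65 nuclear translocation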 (primary screen)
- Cells: mouse RAW264.7 G9 macrophage reporter cells (GFP-p65, Tnf promoter-mCherry)
- Reagent: siRNA pool against mouse genes, 100 nM
- Timing: 2 days siRNA transfection, then 40 min LPS before fixation
- Challenge: LPS (Salmonella minnesota R595) at 10 ng/ml
- Detection: 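Microscopy ratio of nuclear to perinuclear-ring GFP-p65 signal, scaled to the plate median; gene score is the average of two replicate robust z-scores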
- Direction: p65 translocation robust z-score: higher = more nuclear NF-kappaB p65 after LPS than the plate median; nuclear/cytoplasmic p65 ratio: higher = more nuclear NF-kappaB p65
- Call rule: 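Active if robust z is above 3.3 (negative regulators) or below -1.56, the Tlr4 control median (positive regulators); activity score 50 or more; control wells not called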
- Meaning of the calls: active = hit (p65 shift raised or lowered); inactive = no clear change

The first 2 records as a preview:
Hoxb7: p65 translocation robust z-score = -0.15; nuclear/cytoplasmic p65 ratio, rep 1 = 1.39; nuclear/cytoplasmic p65 ratio, rep 2 = 1.38; low cell count flag = enough cells to score
Sesn3: nuclear/cytoplasmic p65 ratio, rep 1 = 1.29; nuclear/cytoplasmic p65 ratio, rep 2 = 1.28; low cell count flag = fewer than 50 cells per well; well left out of scoring

Results, from the first entry:
Hoxb7: p65 translocation robust z-score = -0.15; nuclear/cytoplasmic p65 ratio, rep 1 = 1.39; nuclear/cytoplasmic p65 ratio, rep 2 = 1.38; low cell count flag = enough cells to score
Sesn3: nuclear/cytoplasmic p65 ratio, rep 1 = 1.29; nuclear/cytoplasmic p65 ratio, rep 2 = 1.28; low cell count flag = fewer than 50 cells per well; well left out of scoring
Gpr19: p65 translocation robust z-score = -0.04; nuclear/cytoplasmic p65 ratio, rep 1 = 1.46; nuclear/cytoplasmic p65 ratio, rep 2 = 1.61; low cell count flag = enough cells to score
Zkscan8: p65 translocation robust z-score = 0.46; nuclear/cytoplasmic p65 ratio, rep 1 = 1.51; nuclear/cytoplasmic p65 ratio, rep 2 = 1.28; low cell count flag = enough cells to score
Il1f10: nuclear/cytoplasmic p65 ratio, rep 1 = 1.35; nuclear/cytoplasmic p65 ratio, rep 2 = 1.3; low cell count flag = fewer than 50 cells per well; well left out of scoring
Nek5: p65 translocation robust z-score = -1.06; nuclear/cytoplasmic p65 ratio, rep 1 = 1.5; nuclear/cytoplasmic p65 ratio, rep 2 = 1.27; low cell count flag = enough cells to score
Acot8: nuclear/cytoplasmic p65 ratio, rep 1 = 1.25; nuclear/cytoplasmic p65 ratio, rep 2 = 1.2; low cell count flag = fewer than 50 cells per well; well left out of scoring
Epx: p65 translocation robust z-score = -0.07; nuclear/cytoplasmic p65 ratio, rep 1 = 1.41; nuclear/cytoplasmic p65 ratio, rep 2 = 1.4; low cell count flag = enough cells to score
Smr2: p65 translocation robust z-score = -0.58; nuclear/cytoplasmic p65 ratio, rep 1 = 1.4; nuclear/cytoplasmic p65 ratio, rep 2 = 1.17; low cell count flag = enough cells to score
Pnpla8: p65 translocation robust z-score = 0.42; nuclear/cytoplasmic p65 ratio, rep 1 = 1.69; nuclear/cytoplasmic p65 ratio, rep 2 = 1.67; low cell count flag = enough cells to score
Cyth1: p65 translocation robust z-score = -0.44; nuclear/cytoplasmic p65 ratio, rep 1 = 1.44; nuclear/cytoplasmic p65 ratio, rep 2 = 1.35; low cell count flag = enough cells to score
Or10a3: nuclear/cytoplasmic p65 ratio, rep 1 = 1.57; nuclear/cytoplasmic p65 ratio, rep 2 = 1.18; low cell count flag = fewer than 50 cells per well; well left out of scoring
Or4b1: p65 translocation robust z-score = 1.52; nuclear/cytoplasmic p65 ratio, rep 1 = 1.9; nuclear/cytoplasmic p65 ratio, rep 2 = 1.57; low cell count flag = enough cells to score
1110059E24Rik: p65 translocation robust z-score = 0.9; nuclear/cytoplasmic p65 ratio, rep 1 = 1.58; nuclear/cytoplasmic p65 ratio, rep 2 = 1.65; low cell count flag = enough cells to score
Aimp1: p65 translocation robust z-score = -0.47; nuclear/cytoplasmic p65 ratio, rep 1 = 1.5; nuclear/cytoplasmic p65 ratio, rep 2 = 1.47; low cell count flag = enough cells to score
Pkd2l2: p65 translocation robust z-score = 0.99; nuclear/cytoplasmic p65 ratio, rep 1 = 1.56; nuclear/cytoplasmic p65 ratio, rep 2 = 1.61; low cell count flag = enough cells to score
Mfsd8: nuclear/cytoplasmic p65 ratio, rep 1 = 1.52; nuclear/cytoplasmic p65 ratio, rep 2 = 1.53; low cell count flag = fewer than 50 cells per well; well left out of scoring
Scn3b: p65 translocation robust z-score = -0.81; nuclear/cytoplasmic p65 ratio, rep 1 = 1.28; nuclear/cytoplasmic p65 ratio, rep 2 = 1.15; low cell count flag = enough cells to score
Ssbp4: p65 translocation robust z-score = -1.13; nuclear/cytoplasmic p65 ratio, rep 1 = 1.37; nuclear/cytoplasmic p65 ratio, rep 2 = 1.1; low cell count flag = enough cells to score
Cited2: p65 translocation robust z-score = 1.31; nuclear/cytoplasmic p65 ratio, rep 1 = 1.74; nuclear/cytoplasmic p65 ratio, rep 2 = 2.05; low cell count flag = enough cells to score
Eml4: nuclear/cytoplasmic p65 ratio, rep 1 = 1.31; nuclear/cytoplasmic p65 ratio, rep 2 = 1.44; low cell count flag = fewer than 50 cells per well; well left out of scoring
Cd6: p65 translocation robust z-score = -0.13; nuclear/cytoplasmic p65 ratio, rep 1 = 1.48; nuclear/cytoplasmic p65 ratio, rep 2 = 1.36; low cell count flag = enough cells to score
Mmd2: p65 translocation robust z-score = 1.52; nuclear/cytoplasmic p65 ratio, rep 1 = 2; nuclear/cytoplasmic p65 ratio, rep 2 = 1.84; low cell count flag = enough cells to score
Strn: p65 translocation robust z-score = -0.64; nuclear/cytoplasmic p65 ratio, rep 1 = 1.17; nuclear/cytoplasmic p65 ratio, rep 2 = 1.16; low cell count flag = enough cells to score
Cd8a: p65 translocation robust z-score = -0.45; nuclear/cytoplasmic p65 ratio, rep 1 = 1.38; nuclear/cytoplasmic p65 ratio, rep 2 = 1.32; low cell count flag = enough cells to score
Vmn1r235: p65 translocation robust z-score = -0.25; nuclear/cytoplasmic p65 ratio, rep 1 = 1.42; nuclear/cytoplasmic p65 ratio, rep 2 = 1.14; low cell count flag = enough cells to score
Klkb1: p65 translocation robust z-score = -0.53; nuclear/cytoplasmic p65 ratio, rep 1 = 1.37; nuclear/cytoplasmic p65 ratio, rep 2 = 1.34; low cell count flag = enough cells to score
